In all, about 330,000 compounds went through this assay and about 7,700 (2.3%) were called active. This list was built around the results that the source calls inconclusive (neither active nor inactive); the mix of calls is not that of the screen. The call rests on the fitted dose curve; in most records, active means well fitted inhibition curve with a large enough effect; inconclusive means small, poorly fitted or top-dose-only effect, or effect the other way; inactive means flat fitted curve, though single readings scatter. Potencies of inconclusive entries are doubtful fits and often do not repeat. A structure can be active in one record and inactive in another.
Assay: qHTS screen for small molecules that inhibit ELG1-dependent DNA repair in human embryonic kidney (HEK293T) cells expressing luciferase-tagged ELG1; further: nearly all actives have a fitted effect of over 55% in size
Details: HEK293T ELG1-luciferase reporter, luminescence, 16 h, DNA damage induced by 5-fluorouridine; series mostly up to 46.1 µM
Summary of the method: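 5-Fluorouridine DNA damage + compound/DMSO, 2,000 cells/well, 16 h, 37 °C/5% CO2. ONE-Glo, 30 min RT, luminescence. Readout = decrease in reporter signal.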
Potency means the concentration at half of the fitted maximal effect.

| Structure (SMILES) | Potency |
| --- | --- |
| Cc1c(-c2cccc(Cl)c2)nc2ccccc2c1C(=O)OCC(=O)N(C)C1CCS(=O)(=O)C1 (stereo unspecified) | inconclusive: 29.1 µM [inhibitor, single point] |
| COc1ccc(C2=NN(C(=O)COC(=O)c3ccc(NC(=O)CC#N)cc3)C(c3ccco3)C2)cc1 (stereo unspecified) | inconclusive: 35.5 µM [inhibitor, single point] |
| CCN(CC)c1cccc(OCC(=O)N(C)CCC#N)c1 | inconclusive: 4.11 µM [inhibitor, single point] |
| CNc1nc(C)nc(-c2ccccc2O)n1 | inconclusive: 16.4 µM [activator, single point] |
| Cc1ccc2nc(SCC(=O)Nc3ccc(F)c([N+](=O)[O-])c3)[nH]c2c1 | inconclusive: 16.4 µM [inhibitor, single point] |
| Cc1ccc(NC(=O)/C(=C\c2cccnc2)NC(=O)c2ccco2)cc1 | inactive |
| CS(=O)(=O)N(CC(=O)N1CCOCC1)Cc1ccc(Cl)cc1 | inactive |
| N/C(=N\OC(=O)c1cccs1)c1cccc(Br)c1 | inconclusive: 29.1 µM [activator, single point] |
| C/C(=N\Nc1cc(N2CCOCC2)ncn1)c1ccccc1 | inconclusive: 2.31 µM [activator, partial curve] |
| O=C(Nc1ccc2c(c1)OCCO2)c1cnc2n(c1=O)CCS2 | inconclusive: 3.66 µM [activator, full curve] |
| Cc1cc(C(=O)COC(=O)Cc2n[nH]c(=O)c3ccccc23)c(C)n1-c1cccc(C(F)(F)F)c1 | active: 23.1 µM |
| O=C(Cc1csc(-c2ccccc2)n1)NCc1cccs1 | inactive |
| CC1(C)CC(NC(=O)C23CCC(C)(C(=O)C2=O)C3(C)C)CC(C)(C)N1 (stereo unspecified) | inconclusive: 2.31 µM [activator, partial curve, poor fit] |
| Cn1c(-c2ccccc2[N+](=O)[O-])[n+](C)c2ccccc21 | inconclusive: 29.1 µM [inhibitor, single point] |
| O=C(C1CCCN(S(=O)(=O)c2cc(Cl)ccc2Cl)C1)N1CCCC1 (stereo unspecified) | inconclusive: 29.1 µM [inhibitor, single point] |
| O=C(CCc1c[nH]c2ccccc12)NCc1ccncc1 | inactive |
| COc1ccc(NC(=O)CSc2nc3ccccc3c(=O)n2Cc2cccs2)c(OC)c1 | inactive |
| COc1ccc(S(=O)(=O)N2CCC(C(=O)N3CCCC3)CC2)cc1C | inconclusive: 16.4 µM [inhibitor, single point] |
| CCCCOC(=O)c1ccc(NC(=O)COC(=O)CSc2nc(C)cc(C)n2)cc1 | inconclusive: 20.6 µM [activator, partial curve] |
| CCOc1ccccc1C(=O)OCC(=O)Nc1nnc(-c2ccccc2)o1 | inactive |
| O=C(Nc1ccc2c(c1)OCCO2)C(=S)NCc1ccccc1 | inconclusive: 23.1 µM [activator, partial curve] |
| CCCn1c2c(c(=N)c3c1CCC3)CCC2 | active: 18.3 µM |
| O=C(Nc1ccccc1Cl)C1(c2ccccc2)CC1(Cl)Cl (stereo unspecified) | inactive |
| COCC(C)(C)COS(N)(=O)=O | inactive |

| Structure (SMILES) | Potency |
| --- | --- |
| Cc1cc(C)nc(NC(=O)c2ccc(C)c(C)c2)n1 | inconclusive: 18.3 µM [activator, partial curve, poor fit] |
| CC(C)=NOCC(=O)Nn1c(COc2c(C)cccc2C)nc2ccccc2c1=O | inactive |
| CCOC(=O)c1ccc(Nc2cc(C)nc(N3CCOCC3)n2)cc1 | inconclusive: 25.9 µM [inhibitor, single point] |
| CCOC(=O)c1c(NC(=O)CN2CCCCC2)sc(CN(C)C)c1-c1ccccc1 | inactive |
| COCc1ccc(-c2c(-c3cc(OC)cc(OC)c3)oc(=O)c3cc(OC)c(OC)cc23)cc1 | active: 0.58 µM |
| COc1cc(/C=N/NC(=O)CC2(C)OCCCO2)ccc1OCc1ccccc1 | inconclusive: 32.6 µM [activator, partial curve, poor fit] |
| O=C(NCCc1ccccc1)c1cccc2c1C(=O)N(C1CCCCC1)C2 | inconclusive: 18.3 µM [inhibitor, partial curve, poor fit] |
| CC(C)(C)c1ccc(S(=O)(=O)NCc2ccccn2)cc1 | inactive |
| Cc1cc(OCc2cc(C(=O)NC(C)c3c(C)nn(C)c3C)no2)cc(C)c1Cl (stereo unspecified) | inconclusive: 9.2 µM [activator, partial curve] |
| CCCn1cc(S(=O)(=O)CC(=O)N2CCc3ccccc32)c2ccccc21 | inconclusive: 23.1 µM [inhibitor, single point] |
| Cc1ncc(CO)c2c1Oc1nc(-c3ccccc3)nc(SCC(=O)N3CCOCC3)c1C2 | inconclusive: 8.2 µM [inhibitor, partial curve] |
| CC(C)(C)[C@@H]1C=C(C(=O)N2CCN(Cc3ccccc3)CC2)O[C@H](OCc2ccc(CO)cc2)C1 | inactive |
| O=C(O)C(=O)/C(=C\c1ccccc1)c1ccc2ccccc2n1 | inconclusive: 10.3 µM [activator, partial curve] |
| S=C(NCC1CCCO1)NC1CCCCC1 (stereo unspecified) | inactive |
| COc1ccc(C(O)(CCN2CCCCC2)C2CCCCC2)cc1 (stereo unspecified) | inactive |
| C#CCOc1c(Cl)cc(/C=C2/C(=O)ON=C2C)cc1OC | inactive |
| CC(Oc1cccc(Cl)c1)C(=O)N(C)CC(=O)Nc1ccc(N2CCOCC2)cc1 (stereo unspecified) | inactive |
| Cc1cc2nc(C3CCCN(C(=O)NCc4ccccc4)C3)[nH]c2cc1C (stereo unspecified) | inconclusive: 11.2 µM [activator, partial curve, poor fit] |
| O=C(OCc1nnc(-c2ccccc2)o1)C1CC(=O)N(CCc2ccccc2)C1 (stereo unspecified) | inconclusive: 10.3 µM [activator, partial curve, poor fit] |
| O=C(c1ccco1)N1CCN(S(=O)(=O)c2ccc(Cl)cc2)CC1 | inconclusive: 20 µM [inhibitor, partial curve, poor fit] |
| CCCN=C(C)C1=C(O)c2ccccc2C1=O | inconclusive: 18.4 µM [activator, partial curve] |
| CC(=O)c1cc(C(=O)N2CCc3c([nH]c4ccccc34)C2C2CCCCC2)[nH]n1 (stereo unspecified) | inconclusive: 18.3 µM [inhibitor, partial curve, poor fit] |
| COC(=O)c1ccc(-n2c(C)cc(C(=O)COC(=O)C3=COCCO3)c2C)cc1 | inconclusive: 18.3 µM [inhibitor, partial curve, poor fit] |
| COc1ccccc1-c1nc(C#N)c(N2CCN(Cc3ccccc3)CC2)o1 | inactive |

Taken from the entries so far (4 entries):

| Structure (SMILES) | Potency |
| --- | --- |
| CC(C)(C)[C@@H]1C=C(C(=O)N2CCN(Cc3ccccc3)CC2)O[C@H](OCc2ccc(CO)cc2)C1 | inactive |
| O=C(O)C(=O)/C(=C\c1ccccc1)c1ccc2ccccc2n1 | inconclusive: 10.3 µM [activator, partial curve] |
| S=C(NCC1CCCO1)NC1CCCCC1 (stereo unspecified) | inactive |
| COc1ccc(C(O)(CCN2CCCCC2)C2CCCCC2)cc1 (stereo unspecified) | inactive |

(continued)

| Structure (SMILES) | Potency |
| --- | --- |
| O=C(N/N=C/c1ccc([N+](=O)[O-])s1)c1ccccc1 | inconclusive: 4.11 µM [inhibitor, single point] |
| CC(C)C[C@H](NC(=O)Nc1ccc2c(c1)OCCO2)C(=O)O | inactive |
| CCNC(=S)N(Cc1ccc(OC)cc1)C1CC(=O)N(c2ccc(OCC)cc2)C1=O (stereo unspecified) | inconclusive: 29.1 µM [inhibitor, single point] |
| COc1ccc(-c2c(-c3ccc(OC)nc3)c3ccccc3n2C)cc1 | inactive |
| O=S(=O)(c1ccccc1F)N1CCN(CCc2ccccc2)CC1 | inconclusive: 29.1 µM [inhibitor, single point] |
| COC(=O)Cc1c(O)ccn(CCc2ccc(OC)c(OC)c2)c1=O | inconclusive: 1.16 µM [inhibitor, single point] |
| CCOC(=O)c1ccccc1NC1c2ccccc2C(=O)N1C1CCN(C(=O)OCC)CC1 (stereo unspecified) | inconclusive: 25.9 µM [inhibitor, single point] |
| Cn1c(NC(=O)CCC2CCCCC2)cc(=O)n(C)c1=O | inconclusive: 2.91 µM [activator, full curve] |
| CN(CCc1ccccn1)C(=O)c1nn2c(C(F)(F)F)cc(-c3ccco3)nc2c1Cl | inconclusive: 8.2 µM [inhibitor, partial curve, poor fit] |
| COc1ccc(Cc2nnc(NCCO)[nH]c2=O)cc1 | inactive |
| CCNc1nc(NCC)nc(N/N=C/c2ccc(O)c(OC)c2)n1 | inconclusive: 29.1 µM [inhibitor, single point] |
| COc1ccc(C(=O)N/C(=C\c2ccco2)C(=O)NCCCn2ccnc2)cc1 | inconclusive: 29.1 µM [activator, partial curve, poor fit] |
| O=[N+]([O-])c1cccc(N/N=C/c2cccc(O)c2O)c1 | inconclusive: 20.6 µM [activator, single point] |
| CC(=O)Nc1ccc(-c2nc(C)c(C(C)=O)n2O)cc1 | inconclusive: 18.4 µM [activator, single point] |
| CN(C)C(=O)c1nc2ccc(Cl)cn2c1CN1CCCC(OCc2ccccc2)C1 (stereo unspecified) | inconclusive: 20.6 µM [inhibitor, single point] |
| Cc1cc(OC(=O)c2ccccc2Br)cc(=O)n1C | inconclusive: 2.59 µM [inhibitor, full curve, poor fit] |
| CCC1(c2ccccc2)NC(=O)N(CC(=O)NNC(=O)c2ccc(F)cc2)C1=O (stereo unspecified) | inactive |
| Nc1nc(CN2CCN(Cc3ccccc3)CC2)nc(Nc2ccc3c(c2)OCCO3)n1 | inconclusive: 25.9 µM [inhibitor, single point] |
| CC(C)(C)c1ccc(C(=O)C2CCCN(C(=O)CCn3cncn3)C2)cc1 (stereo unspecified) | inactive |
| Cc1c(C)n(CC(O)CN2C(=O)c3ccccc3S2(=O)=O)c2ccccc12 (stereo unspecified) | inactive |
| COc1ccc2[nH]c(C(=O)Nc3ncc(C)cc3Br)cc2c1 | inactive |
| O=C(OCn1ncc(Br)c(Br)c1=O)c1ccc(F)cc1 | inconclusive: 29.1 µM [inhibitor, single point] |
| C[n+]1c2n(c3ccccc31)N=C(c1ccccc1)CS2 | active: 5.8 µM |

Reference: PubChem BioAssay AID504467 (National Center for Advancing Translational Sciences (NCATS), 2011)
